# Assay results as given in the supplement of paper PMC11150407.
# In all, about 3,000 compounds went through this assay and about 45 (2%) showed an effect of 50% or more. Some of the results follow.
# Tested on: MOLM1 and UCSD/AML1 (averaged)
# Test: cell viability relative to DMSO control (POC); higher = less growth inhibition
# Details: 1 µM; 72 h
# Protocol: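 Primary viability screen in the 3q26 EVI1-high AML cell lines MOLM1 and UCSD/AML1, compounds at 1 uM for 72 h. ATP CellTiter-Glo read-out given as percent viable over DMSO control (POC), averaged over duplicates. This mapping covers the TimTec NDL-3000 natural derivative library, whose compounds are identified by TimTec catalogue codes (ST...).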
row,Structure (SMILES),cell viability
1,CCCOc1ccc(C2NC(C(=O)O)Cc3c2[nH]c2ccccc32)cc1OC (configuration not stated),98%
2,CCc1ccc(NC(=O)C2=Cc3ccccc3OC2)cc1,90.1%
3,COc1cc(C2C(C(=O)c3ccc(C)o3)=C(O)C(=O)N2Cc2ccccc2)ccc1O (configuration not stated),105%
4,CCOc1cc(C2Nc3ccccc3NC3=C2C(=O)CC(c2cccs2)C3)cc(Br)c1O (configuration not stated),99%
5,COc1ccc(C(=O)c2sc(Nc3cccc(F)c3)nc2N)cc1OC,96.9%
6,NC1=C(C(=O)OCc2ccccc2)C(c2cccnc2)c2oc(CO)cc(=O)c2O1 (configuration not stated),118%
7,O=C(O)CNC(=O)c1ccccc1I,115%
8,COc1ccc2[nH]c(C)c(CCNC(=O)c3cc(OC)c(OC)c(OC)c3)c2c1,99.4%
9,CC(=O)OC1CCC2(C)C(C1)CC(OC(C)=O)C1C2CC(OC(C)=O)C2(C)C(C(C)CCC(=O)O)CCC12 (configuration not stated),91.5%
10,Cn1c(=O)c2c(nc(Cl)n2Cc2ccccc2F)n(C)c1=O,101%
11,COc1cc(C(=O)Nc2ccc(-n3nc(C)cc3Cl)cc2)cc(OC)c1OC,97.5%
12,COc1cc2c(cc1OC)C(=O)N(C)C(=O)C2=O,108%
13,Cc1ccc(-n2c(SCc3nc(-c4ccc(Cl)cc4)oc3C)nc3c(=O)[nH]cnc32)cc1,106%
14,COc1cc(-c2nnc(SCC(N)=O)n2-c2ccc3c(c2)OCO3)cc(OC)c1OC,112%
15,O=C(NNC(=O)c1cc2cc(Br)ccc2oc1=O)c1ccccc1I,94.3%
16,COC(=O)C1=C(C)NC2=C(C(=O)CCC2)C1c1cc(Br)c(O)c(OC)c1 (configuration not stated),120%
17,COc1cc(Br)c(CCn2c(N)c(Br)c(=O)[nH]c2=O)cc1OC,95%
18,O=C(O)/C=C/c1c(Cl)cccc1Cl,94.6%
19,O=C(Nc1ccc2oc(-c3ccccc3Cl)nc2c1)c1ccc2c(c1)OCCO2,91.6%
20,Cc1cc(C)c2c(CN3CCC(N4CCCCC4)CC3)cc(=O)oc2c1,99.9%
21,CCOc1ccc2oc(=O)cc(CN3CCN(Cc4cc(C=O)ccc4OC)CC3)c2c1,94.5%
22,CN(CC(=O)O)S(=O)(=O)c1ccc2oc3ccccc3c2c1,108%
23,COc1ccc(C(=O)CC2(O)C(=O)Nc3ccccc32)cc1OC (configuration not stated),104%
24,COc1ccc(Nc2nc(N)c(C(=O)c3ccc(OC)c(OC)c3)s2)cc1,15.4%

row,Structure (SMILES),cell viability
1,Cc1nc2c(nc(SCc3nc(-c4cccc(Br)c4)oc3C)n2C)c(=O)[nH]1,96.5%
2,COc1cc(OC)c(N=C2C(=O)N(CN3CCc4ccccc4C3)c3ccccc32)cc1Cl,93.6%
3,Cn1c(=O)c([N+](=O)[O-])c(Cl)c2ccccc21,68.4%
4,Cn1c(NC(=O)CSc2nnc(-c3ccco3)o2)cc(=O)n(C)c1=O,104%
5,CCOC(=O)Cc1ccc(NCCC(=O)c2cc3ccccc3oc2=O)cc1,112%
6,COC(=O)CC(CC(=O)OC)c1ccc(OC)c(OC)c1,102%
7,CC(=O)N(CCc1c(C)[nH]c2ccccc12)C(C(=O)Nc1c(C)cccc1C)c1ccc(Cl)cc1 (configuration not stated),96.6%
8,NC(CCCCCC(=O)O)CCCCC(=O)O (configuration not stated),104%
9,COc1ccccc1NC(=O)CSc1nc2c(=O)[nH]cnc2n1-c1ccc(C)cc1,99.1%
10,Cc1ccc(NC(=O)Cn2c(=O)cc(C(=O)NCc3ccccc3)c3ccccc32)cc1C,102%
11,COC(=O)C1=C(C)NC2=C(C(=O)CCC2)C1c1cc(Cl)c(O)c(OC)c1 (configuration not stated),112%
12,COc1ccc(OC)c(NC(=O)CSc2nc3c(=O)[nH]cnc3n2C)c1,123%
13,COc1ccc(C2c3[nH]c4ccccc4c3CCN2CC(=O)Nc2ccc(C)cc2)cc1 (configuration not stated),87.2%
14,CCn1c(=O)c([N+](=O)[O-])c(N2CCC(C)CC2)c2ccccc21,100%
15,CCc1ccc(OCCNc2c([N+](=O)[O-])c(=O)oc3ccccc23)cc1,97.2%
16,COC(=O)C(Cc1c[nH]c2ccccc12)NC(=O)CN1CCC2(O)CCCCC2C1c1ccc(O)c(OC)c1 (configuration not stated),103%
17,CC(C)CC(NC(=O)C(Cc1ccccc1)NC(=O)C1CCCN1C(=O)OCc1ccccc1)C(=O)OC(C)(C)C (configuration not stated),89.5%
18,COc1cc(C2C3CCCCC3(O)CCN2CC(=O)Nc2ccc(Cl)cc2)cc(OC)c1OC (configuration not stated),102%
19,CC(=O)OC1CCC2(C)C(CCC3(C)C2C(=O)C=C2C4CC(C)(C(=O)NCc5ccccc5)CCC4(C)CCC23C)C1(C)C (configuration not stated),82.6%
20,COc1ccc(-c2c(C)c3cc(O)ccc3oc2=O)cc1OC,101%
21,CC(=O)Oc1cc(OC(C)=O)c2c(c1CC=C(C)C)O[C@H](c1ccccc1)CC2=O,88.2%
22,COc1cc(C2C(=O)c3cc(OC)c(OC)c(OC)c3C2=O)cc(OC)c1OC (configuration not stated),110%
23,CCc1ccc(N(CC)C(=O)CSc2nc3ccccc3c(=O)[nH]2)cc1,106%

# In the list so far, these have a COOH group.
row,Structure (SMILES),cell viability
1,CCCOc1ccc(C2NC(C(=O)O)Cc3c2[nH]c2ccccc32)cc1OC (configuration not stated),98%
7,O=C(O)CNC(=O)c1ccccc1I,115%
9,CC(=O)OC1CCC2(C)C(C1)CC(OC(C)=O)C1C2CC(OC(C)=O)C2(C)C(C(C)CCC(=O)O)CCC12 (configuration not stated),91.5%
18,O=C(O)/C=C/c1c(Cl)cccc1Cl,94.6%
22,CN(CC(=O)O)S(=O)(=O)c1ccc2oc3ccccc3c2c1,108%
8,NC(CCCCCC(=O)O)CCCCC(=O)O (configuration not stated),104%

# Looked up one by one from the list above (2):
row,Structure (SMILES),cell viability
14,CCn1c(=O)c([N+](=O)[O-])c(N2CCC(C)CC2)c2ccccc21,100%
5,CCOC(=O)Cc1ccc(NCCC(=O)c2cc3ccccc3oc2=O)cc1,112%
